Source: the supplement of paper PMC10849652
The other results are listed elsewhere or left out.

By UniProt entry, the sequences of proteins in these tests, tags left out. Where a name states a change or a piece, a line headed by the entry shows the natural chain unless it says otherwise.
UniProt Q8N9Z2: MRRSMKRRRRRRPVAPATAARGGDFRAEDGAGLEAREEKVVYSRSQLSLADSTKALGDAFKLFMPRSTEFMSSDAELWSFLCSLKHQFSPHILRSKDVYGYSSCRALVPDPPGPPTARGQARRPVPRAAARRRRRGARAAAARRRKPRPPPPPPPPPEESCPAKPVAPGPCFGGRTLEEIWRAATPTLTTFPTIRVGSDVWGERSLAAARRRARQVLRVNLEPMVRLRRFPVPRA
UniProt Q8IYE1: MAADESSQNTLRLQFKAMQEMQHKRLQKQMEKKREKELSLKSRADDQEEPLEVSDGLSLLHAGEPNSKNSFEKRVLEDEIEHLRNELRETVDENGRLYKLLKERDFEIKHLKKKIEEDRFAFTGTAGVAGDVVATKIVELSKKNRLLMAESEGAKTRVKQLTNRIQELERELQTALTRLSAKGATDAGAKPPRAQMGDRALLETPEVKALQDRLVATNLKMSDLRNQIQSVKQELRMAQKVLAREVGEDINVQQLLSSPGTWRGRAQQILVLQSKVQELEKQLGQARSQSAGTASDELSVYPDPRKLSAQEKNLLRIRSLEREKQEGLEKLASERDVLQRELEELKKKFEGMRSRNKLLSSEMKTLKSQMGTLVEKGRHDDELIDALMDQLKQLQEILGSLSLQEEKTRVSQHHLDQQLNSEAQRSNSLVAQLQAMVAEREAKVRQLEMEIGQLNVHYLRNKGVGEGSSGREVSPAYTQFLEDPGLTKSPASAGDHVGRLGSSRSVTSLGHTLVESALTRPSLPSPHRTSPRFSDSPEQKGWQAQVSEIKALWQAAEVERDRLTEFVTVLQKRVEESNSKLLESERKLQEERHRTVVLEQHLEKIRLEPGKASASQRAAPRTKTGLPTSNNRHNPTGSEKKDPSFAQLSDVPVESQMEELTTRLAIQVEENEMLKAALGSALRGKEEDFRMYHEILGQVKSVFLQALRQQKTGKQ
UniProt P20138, whole entry, looked up: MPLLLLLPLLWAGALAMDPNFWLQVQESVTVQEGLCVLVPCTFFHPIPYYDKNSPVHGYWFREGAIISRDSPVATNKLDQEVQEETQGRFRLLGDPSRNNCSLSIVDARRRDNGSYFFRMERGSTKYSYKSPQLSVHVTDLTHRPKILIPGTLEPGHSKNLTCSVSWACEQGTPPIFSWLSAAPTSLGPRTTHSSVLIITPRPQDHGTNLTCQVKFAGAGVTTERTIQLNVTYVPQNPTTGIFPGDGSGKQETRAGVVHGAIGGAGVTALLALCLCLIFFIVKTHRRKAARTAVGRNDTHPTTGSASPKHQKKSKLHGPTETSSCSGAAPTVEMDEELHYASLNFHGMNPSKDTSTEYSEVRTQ
UniProt O95810: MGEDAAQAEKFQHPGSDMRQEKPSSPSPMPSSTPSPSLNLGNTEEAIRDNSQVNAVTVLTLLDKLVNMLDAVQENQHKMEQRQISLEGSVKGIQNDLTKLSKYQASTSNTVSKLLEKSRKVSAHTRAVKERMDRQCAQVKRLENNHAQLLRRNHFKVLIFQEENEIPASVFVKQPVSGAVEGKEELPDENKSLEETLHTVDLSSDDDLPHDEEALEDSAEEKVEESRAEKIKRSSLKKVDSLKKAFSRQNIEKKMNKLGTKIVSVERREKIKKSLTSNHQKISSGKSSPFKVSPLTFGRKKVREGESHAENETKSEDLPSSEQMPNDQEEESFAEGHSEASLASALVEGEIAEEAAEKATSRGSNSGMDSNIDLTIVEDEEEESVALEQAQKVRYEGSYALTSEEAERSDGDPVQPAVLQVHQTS
UniProt Q8TD31: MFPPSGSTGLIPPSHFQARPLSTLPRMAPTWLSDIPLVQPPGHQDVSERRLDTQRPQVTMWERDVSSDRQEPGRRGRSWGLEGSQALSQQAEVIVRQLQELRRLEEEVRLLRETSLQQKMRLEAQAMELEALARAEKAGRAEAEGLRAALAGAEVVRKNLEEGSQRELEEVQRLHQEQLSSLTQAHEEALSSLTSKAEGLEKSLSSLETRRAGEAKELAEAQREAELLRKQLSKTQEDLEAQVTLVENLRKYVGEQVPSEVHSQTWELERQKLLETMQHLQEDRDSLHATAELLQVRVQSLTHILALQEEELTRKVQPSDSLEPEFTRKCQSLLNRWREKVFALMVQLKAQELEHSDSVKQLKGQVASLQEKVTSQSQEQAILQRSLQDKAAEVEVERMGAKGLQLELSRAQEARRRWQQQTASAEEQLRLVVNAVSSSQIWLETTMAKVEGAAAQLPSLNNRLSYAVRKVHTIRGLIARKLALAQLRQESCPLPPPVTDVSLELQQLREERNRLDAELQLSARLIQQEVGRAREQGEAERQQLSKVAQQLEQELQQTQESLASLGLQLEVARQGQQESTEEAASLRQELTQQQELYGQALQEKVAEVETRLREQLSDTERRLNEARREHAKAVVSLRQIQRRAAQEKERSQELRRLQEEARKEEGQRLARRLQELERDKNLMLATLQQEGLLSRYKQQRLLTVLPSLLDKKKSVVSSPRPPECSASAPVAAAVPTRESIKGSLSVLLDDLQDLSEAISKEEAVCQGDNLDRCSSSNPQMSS
UniProt Q5T0F9: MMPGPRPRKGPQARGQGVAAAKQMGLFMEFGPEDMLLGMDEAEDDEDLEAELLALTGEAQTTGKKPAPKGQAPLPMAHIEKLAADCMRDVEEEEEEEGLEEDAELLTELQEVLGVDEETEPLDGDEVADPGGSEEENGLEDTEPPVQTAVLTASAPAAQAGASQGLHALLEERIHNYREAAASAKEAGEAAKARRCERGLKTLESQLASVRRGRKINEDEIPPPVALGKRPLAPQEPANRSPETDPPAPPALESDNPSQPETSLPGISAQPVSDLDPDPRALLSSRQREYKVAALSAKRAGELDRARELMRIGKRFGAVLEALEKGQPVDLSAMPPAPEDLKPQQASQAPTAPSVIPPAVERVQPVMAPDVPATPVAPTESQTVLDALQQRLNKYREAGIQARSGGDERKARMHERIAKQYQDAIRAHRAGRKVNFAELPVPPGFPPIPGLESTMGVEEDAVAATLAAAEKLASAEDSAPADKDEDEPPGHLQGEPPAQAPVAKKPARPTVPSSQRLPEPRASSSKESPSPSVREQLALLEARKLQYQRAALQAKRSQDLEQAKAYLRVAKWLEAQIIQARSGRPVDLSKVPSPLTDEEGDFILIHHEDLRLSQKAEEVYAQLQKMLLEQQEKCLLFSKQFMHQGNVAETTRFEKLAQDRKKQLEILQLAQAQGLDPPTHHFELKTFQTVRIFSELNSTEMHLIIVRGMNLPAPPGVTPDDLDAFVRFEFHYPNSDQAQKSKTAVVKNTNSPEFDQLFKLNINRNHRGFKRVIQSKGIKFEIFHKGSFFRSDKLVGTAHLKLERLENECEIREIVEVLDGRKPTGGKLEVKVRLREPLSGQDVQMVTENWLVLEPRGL
UniProt P19397: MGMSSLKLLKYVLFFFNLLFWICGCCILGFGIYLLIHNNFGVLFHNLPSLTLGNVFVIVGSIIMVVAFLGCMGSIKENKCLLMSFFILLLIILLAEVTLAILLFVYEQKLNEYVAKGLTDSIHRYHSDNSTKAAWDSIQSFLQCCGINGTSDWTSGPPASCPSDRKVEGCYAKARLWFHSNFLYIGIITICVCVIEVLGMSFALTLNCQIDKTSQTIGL
UniProt Q9P0B6: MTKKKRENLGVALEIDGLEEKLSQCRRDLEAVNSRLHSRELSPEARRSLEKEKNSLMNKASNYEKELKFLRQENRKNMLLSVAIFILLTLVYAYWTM
UniProt P30279, whole entry, looked up: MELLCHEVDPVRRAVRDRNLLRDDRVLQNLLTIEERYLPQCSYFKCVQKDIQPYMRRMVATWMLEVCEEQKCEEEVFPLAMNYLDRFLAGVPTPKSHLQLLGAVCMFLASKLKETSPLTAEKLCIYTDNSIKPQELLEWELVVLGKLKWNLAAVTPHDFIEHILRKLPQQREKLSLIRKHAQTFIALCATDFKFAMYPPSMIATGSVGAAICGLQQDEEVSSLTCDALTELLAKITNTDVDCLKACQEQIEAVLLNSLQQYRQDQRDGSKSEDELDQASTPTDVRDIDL
UniProt P55210: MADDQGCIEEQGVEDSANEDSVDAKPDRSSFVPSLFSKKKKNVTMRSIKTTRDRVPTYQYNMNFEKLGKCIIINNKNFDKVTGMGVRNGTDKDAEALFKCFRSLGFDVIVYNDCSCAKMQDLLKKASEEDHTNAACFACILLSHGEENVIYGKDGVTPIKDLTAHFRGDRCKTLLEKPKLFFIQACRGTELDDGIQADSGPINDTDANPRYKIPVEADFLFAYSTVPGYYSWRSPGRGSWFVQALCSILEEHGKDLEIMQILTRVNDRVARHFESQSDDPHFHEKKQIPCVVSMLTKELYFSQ
UniProt Q4G0S7: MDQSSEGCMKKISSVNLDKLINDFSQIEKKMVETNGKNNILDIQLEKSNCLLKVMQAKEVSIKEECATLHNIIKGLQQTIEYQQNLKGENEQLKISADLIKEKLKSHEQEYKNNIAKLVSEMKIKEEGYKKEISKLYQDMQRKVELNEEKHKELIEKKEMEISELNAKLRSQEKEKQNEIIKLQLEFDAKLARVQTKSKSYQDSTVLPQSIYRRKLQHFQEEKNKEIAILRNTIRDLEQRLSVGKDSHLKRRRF
UniProt Q9H0W5: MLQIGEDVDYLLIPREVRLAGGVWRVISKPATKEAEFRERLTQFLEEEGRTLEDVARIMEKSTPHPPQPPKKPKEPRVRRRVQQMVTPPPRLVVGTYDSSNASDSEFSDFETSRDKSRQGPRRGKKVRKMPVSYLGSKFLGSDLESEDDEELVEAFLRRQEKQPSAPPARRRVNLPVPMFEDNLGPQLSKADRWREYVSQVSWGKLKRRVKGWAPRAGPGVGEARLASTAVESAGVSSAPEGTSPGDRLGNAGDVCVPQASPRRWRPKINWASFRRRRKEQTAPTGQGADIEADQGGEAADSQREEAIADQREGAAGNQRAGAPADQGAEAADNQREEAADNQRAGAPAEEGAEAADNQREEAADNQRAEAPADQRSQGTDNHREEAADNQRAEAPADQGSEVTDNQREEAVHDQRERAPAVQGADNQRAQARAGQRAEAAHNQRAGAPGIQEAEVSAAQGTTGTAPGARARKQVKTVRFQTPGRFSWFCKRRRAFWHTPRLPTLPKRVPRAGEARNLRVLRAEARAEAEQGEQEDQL
UniProt Q96MW1: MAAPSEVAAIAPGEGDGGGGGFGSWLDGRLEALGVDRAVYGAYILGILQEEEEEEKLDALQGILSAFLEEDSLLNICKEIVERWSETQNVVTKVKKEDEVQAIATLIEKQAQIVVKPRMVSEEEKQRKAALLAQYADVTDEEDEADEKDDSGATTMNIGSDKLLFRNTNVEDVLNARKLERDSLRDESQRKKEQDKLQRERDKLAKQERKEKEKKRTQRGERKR
UniProt O00421: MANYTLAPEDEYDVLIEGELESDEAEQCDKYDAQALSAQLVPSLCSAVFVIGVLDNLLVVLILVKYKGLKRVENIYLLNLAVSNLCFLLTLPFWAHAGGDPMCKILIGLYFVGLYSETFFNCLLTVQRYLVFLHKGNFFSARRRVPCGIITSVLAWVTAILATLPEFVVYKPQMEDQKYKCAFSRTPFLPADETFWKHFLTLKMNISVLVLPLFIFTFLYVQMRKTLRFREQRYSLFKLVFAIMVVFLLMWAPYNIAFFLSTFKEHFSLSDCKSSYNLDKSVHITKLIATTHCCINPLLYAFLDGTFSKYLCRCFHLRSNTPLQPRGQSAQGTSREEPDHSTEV
UniProt Q14781, whole entry, looked up: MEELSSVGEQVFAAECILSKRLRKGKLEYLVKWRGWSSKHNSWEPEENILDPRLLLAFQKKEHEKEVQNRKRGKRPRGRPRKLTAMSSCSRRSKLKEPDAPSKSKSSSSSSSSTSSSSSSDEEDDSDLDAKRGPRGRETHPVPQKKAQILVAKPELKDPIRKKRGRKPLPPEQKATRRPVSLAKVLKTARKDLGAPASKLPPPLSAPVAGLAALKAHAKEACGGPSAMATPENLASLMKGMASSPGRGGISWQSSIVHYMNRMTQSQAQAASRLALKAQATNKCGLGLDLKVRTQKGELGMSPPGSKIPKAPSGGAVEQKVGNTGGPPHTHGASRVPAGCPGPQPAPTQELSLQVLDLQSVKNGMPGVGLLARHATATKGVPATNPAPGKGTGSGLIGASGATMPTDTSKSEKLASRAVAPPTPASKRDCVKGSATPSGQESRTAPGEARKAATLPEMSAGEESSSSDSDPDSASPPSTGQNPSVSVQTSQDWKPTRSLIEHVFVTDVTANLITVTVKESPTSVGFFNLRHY
UniProt Q8IVM0: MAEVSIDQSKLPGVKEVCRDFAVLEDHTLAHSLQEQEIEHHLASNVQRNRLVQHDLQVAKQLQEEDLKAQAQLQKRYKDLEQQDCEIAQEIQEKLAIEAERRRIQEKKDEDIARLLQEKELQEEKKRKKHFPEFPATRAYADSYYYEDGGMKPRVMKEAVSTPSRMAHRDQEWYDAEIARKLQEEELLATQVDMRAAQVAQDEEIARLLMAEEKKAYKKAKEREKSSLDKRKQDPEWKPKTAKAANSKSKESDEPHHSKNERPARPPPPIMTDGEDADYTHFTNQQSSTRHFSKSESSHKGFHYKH

Tests used:
Experiment in all cases: log2 fold change, soluble protein after heating vs DMSO (PISA); higher = thermal stabilisation; K562 lysate, 10 uM; active = over 0.2 and 3.5 SD of the protein, either way, in both replicates (recomputed)
alvocidib = compound: CN1CC[C@H](c2c(O)cc(O)c3c(=O)cc(-c4ccccc4Cl)oc23)[C@H](O)C1 [alvocidib]
In short: (§1)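 Soluble protein was defined as the supernatant remaining after 21,000xg for 90 min, following pooling of heated aliquots and adjustment to 0.5% NP-40 at 4°C. Before that, crude K562 extract at 1 mg/mL protein in PBS pH 7.4 with 1 mM MgCl2 was treated with 10 μM compound for 30 min and heated for 3 min across 48°C-58°C. Quantification used TMTpro 16plex LC-MS/MS with channel sums equalised, and values are log-two fold changes in thermal stability relative to solvent controls from duplicates.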

[1] = compound: CNc1nc(-c2ccc3c(N)n[nH]c3c2)cc(N2C[C@@H](C(=O)NC3CCCCC3)CC[C@H]2C)n1
In short: as §1

defactinib = compound: CNC(=O)c1ccc(Nc2ncc(C(F)(F)F)c(NCc3nccnc3N(C)S(C)(=O)=O)n2)cc1 [defactinib]
In short: as §1

encorafenib = compound: COC(=O)N[C@@H](C)CNc1nccc(-c2cn(C(C)C)nc2-c2cc(Cl)cc(NS(C)(=O)=O)c2F)n1 [encorafenib]
In short: as §1

[2] = compound: COC(=O)[C@H](CCSC)NC(=O)C1=C(C=C(C=C1)NC[C@H](CS)N)C2=CC=CC=C2
In short: as §1

alisertib = compound: COc1cc(Nc2ncc3c(n2)-c2ccc(Cl)cc2C(c2c(F)cccc2OC)=NC3)ccc1C(=O)O [alisertib]
In short: as §1

[3] = compound: COc1cc2nc(-c3cc(F)ccc3O)nc(N[C@@H]3CNC[C@H]3C(C)(C)O)c2cc1OC
In short: as §1

gefitinib = compound: COc1cc2ncnc(Nc3ccc(F)c(Cl)c3)c2cc1OCCCN1CCOCC1 [gefitinib]
In short: as §1

Tubastatin A = compound: CN1CCc2c(c3ccccc3n2Cc2ccc(C(=O)NO)cc2)C1 [Tubastatin A]
In short: as §1

[4] = compound: CNC(=O)C1=CC=CC=C1NC2=NC(=NC=C2Cl)NC3=C(C=C(C=C3)N4CCOCC4)OC
In short: as §1

Measured: log2 fold change

CCDC71L (UniProt Q8N9Z2)
inactive: alvocidib -0.024 | [1] -0.172

CCDC13 (UniProt Q8IYE1)
inactive: alvocidib -0.02 | defactinib 0.051 | [1] 0.669 | encorafenib -0.089 | [2] 0.093 | alisertib -0.039 | [3] -0.085 | gefitinib -0.044

CCDC175 (UniProt P0C221)
inactive: alvocidib -0.135 | defactinib -0.198 | encorafenib -0.114 | [2] 0.08 | [3] 0.151

CD33 (UniProt P20138)
inactive: alvocidib -0.048 | [1] -0.216 | alisertib -0.089 | [3] -0.004 | gefitinib 0.17

CAVIN2 (UniProt O95810)
inactive: alvocidib 0.015 | Tubastatin A 0.052 | [4] -0.004 | defactinib 0.011 | [1] 0.04 | encorafenib 0.028 | [2] -0.046 | alisertib 0.009 | [3] -0.004 | gefitinib -0.007

CCHCR1 isoform 2 (UniProt Q8TD31)
inactive: alvocidib 0.068 | [4] 0.106 | defactinib -0.007 | encorafenib 0.056 | [2] -0.111 | alisertib 0.173 | gefitinib 0.203

CASTOR2 (UniProt A6NHX0)
inactive: alvocidib -0.004 | Tubastatin A 0.003 | [4] 0.016 | defactinib -0.14 | [1] -0.005 | encorafenib 0.047 | [2] -0.028 | alisertib 0.001 | [3] 0.011 | gefitinib 0

CD44 (UniProt P16070)
inactive: alvocidib -0.074 | [4] -0.108 | encorafenib 0.049 | [2] -0.055 | alisertib -0.126 | gefitinib 0.062

CCDC85B (UniProt Q15834)
inactive: alvocidib 0.016 | Tubastatin A 0.016 | [4] 0.217 | defactinib 0.183 | [1] -0.08 | encorafenib 0.255 | [2] -0.481
active: [3] -0.508

CBWD2 (UniProt Q8IUF1)
inactive: alvocidib 0.087 | Tubastatin A 0.009 | [4] 0.019 | defactinib -0.029 | [1] 0.049 | encorafenib 0.04 | [2] 0.093 | alisertib 0.02 | [3] -0.009 | gefitinib -0.018

2 entries drawn at random from those above:
CCDC175 (UniProt P0C221)
inactive: alvocidib -0.135 | defactinib -0.198 | encorafenib -0.114 | [2] 0.08 | [3] 0.151

CD33 (UniProt P20138)
inactive: alvocidib -0.048 | [1] -0.216 | alisertib -0.089 | [3] -0.004 | gefitinib 0.17

Going on with the list:

CC2D1B isoform 2 (UniProt Q5T0F9)
inactive: alvocidib -0.019 | Tubastatin A -0.005 | [4] 0.015 | defactinib -0.035 | [1] 0.062 | encorafenib -0.012 | [2] 0.048 | alisertib 0.075 | [3] -0.003 | gefitinib -0.007

CD53 (UniProt P19397)
inactive: alvocidib 0.009 | Tubastatin A -0.011 | [4] 0.04 | defactinib -0.016 | encorafenib 0.082 | [2] -0.059 | alisertib 0.041 | [3] 0.03 | gefitinib 0.085

CCDC167 (UniProt Q9P0B6)
inactive: [4] 0.064 | alisertib -0.1 | gefitinib -0.011

CCND2 (UniProt P30279)
inactive: Tubastatin A 0 | [4] -0.104 | [1] -0.011 | alisertib 0.096 | [3] 0.129 | gefitinib 0.141

CCDC9, A0A2R8Y4Z8
inactive: Tubastatin A 0.197 | [1] 0.098 | [3] -0.107

CCT6B isoform 3 (UniProt Q92526)
inactive: defactinib -0.007 | [1] 0.315 | [3] 0.229

CCDC130 (UniProt P13994)
inactive: Tubastatin A -0.066 | [4] -0.275 | encorafenib -0.015 | [2] 0.09

CD79B isoform 3 (UniProt P40259)
inactive: [1] 0.221

CARHSP1 (UniProt H3BNU9)
inactive: alvocidib -0.027 | alisertib -0.107 | [3] -0.003 | gefitinib -0.213

Copied from the entries so far (two entries):
CD79B isoform 3 (UniProt P40259)
inactive: [1] 0.221

CARHSP1 (UniProt H3BNU9)
inactive: alvocidib -0.027 | alisertib -0.107 | [3] -0.003 | gefitinib -0.213

(listing goes on)

CD164 (UniProt Q04900)
inactive: [4] 0.052

CASP7 isoform 3 (UniProt P55210)
active: [2] 0.379
inactive: Tubastatin A -0.051 | [4] -0.016 | [1] -0.059 | encorafenib 0.16 | alisertib -0.058 | [3] 0.079 | gefitinib 0.108

CCNT2 (UniProt O60583)
inactive: Tubastatin A -0.115 | defactinib 0.034 | [1] 0.018 | encorafenib -0.027 | [2] -0.033 | alisertib 0.112 | [3] -0.051 | gefitinib -0.111

CCDC88A isoform 2 (UniProt Q3V6T2)
inactive: alvocidib -0.136 | alisertib -0.033 | gefitinib 0.076

CCDC152 (UniProt Q4G0S7)
inactive: [4] -0.067 | defactinib 0.062 | [1] 0.056

CCAR2 (UniProt G3V119)
inactive: [3] -0.032

CCT6B (UniProt Q92526)
inactive: alvocidib 0.117 | [3] 0.094

CCT3 (UniProt E9PM09)
inactive: Tubastatin A 0.034 | [4] 0.121 | defactinib -0.197 | [1] 0.055 | encorafenib -0.125 | [2] -0.153 | alisertib -0.011 | [3] 0.071 | gefitinib 0.041

CCP110 (UniProt O43303)
inactive: Tubastatin A -0.045 | [4] -0.115 | defactinib 0.181 | [1] 0.008 | encorafenib 0.075 | [2] 0.125

CCDC126 (UniProt Q96EE4)
inactive: [4] 0.047

CCDC144A (UniProt A2RUR9)
inactive: [4] -0.12 | defactinib -0.142 | [1] -0.014 | encorafenib 0.01 | [2] 0.007

CCNL1 (UniProt Q9UK58)
inactive: alvocidib 0.133 | encorafenib 0.087 | [2] 0.075 | alisertib 0.041 | [3] -0.086 | gefitinib -0.096

CCDC102A (UniProt Q96A19)
inactive: [4] -0.019 | defactinib 0.047 | encorafenib -0.243 | [2] 0.057

CCDC8 (UniProt Q9H0W5)
inactive: [1] 0.019 | alisertib 0.047 | gefitinib -0.065

CCDC43 isoform 2 (UniProt Q96MW1)
inactive: [4] -0.385

CCRL2 isoform 2 (UniProt O00421)
inactive: Tubastatin A 0.107 | [4] -0.1 | alisertib -0.221 | gefitinib 0.053

CCDC66 (UniProt A2RUB6)
inactive: Tubastatin A -0.082 | encorafenib 0.299 | [2] 0.157

CBX2 (UniProt Q14781)
inactive: alisertib -0.068 | [3] 0.142 | gefitinib -0.035

CBX8 (UniProt Q9HC52)
inactive: defactinib -0.186 | encorafenib 0.12 | [2] -0.04

CCDC138 (UniProt Q96M89)
inactive: alisertib 0.054 | gefitinib 0.066

CASP8 isoform 4 (UniProt Q14790)
inactive: [1] -0.028

CD46 (UniProt P15529)
inactive: [4] 0.057

CCT8 (UniProt H7C4C8)
inactive: Tubastatin A 0.171 | alisertib -0.09 | gefitinib -0.248

CASP10 isoform 2 (UniProt Q92851)
inactive: Tubastatin A -0.204 | [1] -0.158 | encorafenib 0.002 | [2] 0.084

CCDC50 (UniProt Q8IVM0)
inactive: Tubastatin A 0.017 | [4] -0.063 | encorafenib 0.046 | [2] -0.121 | alisertib -0.031 | [3] -0.218 | gefitinib -0.099

CD226 (UniProt Q15762)
inactive: [3] 0.069
